Some results were stated once for a whole list of compounds, not compound by compound.
Tested on: MRSA (ATCC 33591)
Assay: Screen of 18-member library at 64, 32, 16 and 8 μg/mL against MRSA
Format: cell-based, Staphylococcus aureus
Settings: screened at 64, 32, 16 and 8 μg/mL

For `CC1(C)S[C@@H]2[C@H](NC(=O)[C@H](N)c3ccccc3)C(=O)N2[C@H]1C(=O)O` [ampicillin], the “concentration that prevented bacterial growth” value was over 64 µg/mL.

With `O=C(N[C@H](CO)[C@H](O)c1ccc([N+](=O)[O-])cc1)C(Cl)Cl` [chloramphenicol] the “concentration that prevented bacterial growth” value was over 64 µg/mL.

Reference: patent publication US12006297B2, “Antibacterial activity of functionalized dihydropyrimidines” (WiSys Technology Foundation, Inc., priority 2021, dated 2024)
